The experiment concerns the target MalE-VirF (maltose binding protein–VirF fusion protein) (Shigella flexneri) (UniProt P0A2T1). Kind of experiment: SEC; analytical gel filtration on Superose 12; MalE-VirF 0.75 mg/mL; amylose resin binding buffer (20 mM Tris-HCl, 500 mM NaCl, 1 mM EDTA, pH 7.4); 0.75 mL/min; compared with a 4-point molecular weight calibration curve; both purified.

Results are given in words; binding and its absence hold for the method and conditions named.

As to “MalE-VirF (maltose binding protein–VirF fusion protein) (from UniProt P0A2T1 1-262)”, the binding entry was “no binding (tested: 0.75 mg/mL)”.

The values above are taken from publication PMC4564171 (PLoS ONE, 2015).
